Assay results taken from PubChem BioAssay AID2685 (National Center for Advancing Translational Sciences (NCATS), 2010).
Some of the results follow. Shown are side measurements of this screen, not its main read-out; they come without a call. Most of these compounds were active or inconclusive in the main read-out, so they are no random draw. Words in brackets tell the shape of the fitted curve; partial curves, single points and poor fits give uncertain potencies.

Experiment: qHTS Assay for Lipid Storage Modulators in Drosophila S3 Cells;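 as to cell number change: cells counted by Cell Tracker Red CMTPX staining in the red channel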
Settings: BODIPY lipid droplet fluorescence, 18-24 h; for cell number change: measured here: cell count max response, cells fed with added oleic acid
Summary of the method: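 Laser-scanning cytometry quantifies lipid droplet accumulation (500–530 nm total intensity; droplet/cell object ratio) in oleic acid-fed (400 uM added) Drosophila S3 cells treated with a concentration series. 20 uM Triacsin C defined 100% inhibition.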

[1] = measured here: cell number channel AC50, cells fed with added oleic acid
[2] = measured here: lipid fluorescence (Fed channel) AC50, cells fed with added oleic acid

SMILES	cell number change [%]	AC50 [1]	AC50 [2]
CN(c1ccccc1)S(=O)(=O)c1ccc(Cl)nc1	-12.4	0.731 µM [falling, full curve, poor fit]	0.206 µM [falling, full curve, poor fit]
O=C(CCC(=O)c1cccs1)Nc1ncccc1O	25	2.06 µM [falling, partial curve, poor fit]	
Cc1csc2nnc(N)n12	-0.14		0.146 µM [falling, full curve, poor fit]
O=C(CN1CCc2ccccc21)Nc1ccc2c(c1)OCO2	7.69		1.84 µM [rising, partial curve]
Cc1cccc(NC(=O)CS(=O)CC(=O)Nc2cnc3ccccc3c2)c1C (configuration not stated)	13.3		1.16 µM [rising, full curve]
Cc1ccnc2nc(C(=O)OCC(=O)c3c[nH]c4ccccc34)nn12	37.8	32.6 µM [rising, partial curve, poor fit]	
CCSc1nc2cc(OC)c(OC)cc2c(=O)n1CCc1ccccc1	100	1.84 µM [rising, full curve]	3.26 µM [rising, partial curve]
Nc1cccc(/C=C/c2ccncc2)c1	5.71		0.092 µM [rising, full curve, poor fit]
Cn1c(=O)[nH]c(=O)c2c1nc(CN1CCN(c3cccc(Cl)c3)CC1)n2Cc1ccccc1Cl			3.26 µM [rising, partial curve]
Cn1nc(C(=O)NNC(=O)c2ccc(Cl)c(S(N)(=O)=O)c2)c2ccccc2c1=O	-17.3		4.61 µM [rising, full curve, poor fit]
CC(C)CCNC(=O)COc1ccc2c3c(c(=O)oc2c1)CCC3	-9.98		0.206 µM [rising, full curve, poor fit]
O=C(O)COc1ccc(C(=O)Cc2ccc3c(c2)OCCCO3)c(O)c1	-8.7		18.4 µM [rising, single point]
O=C(Nc1ncc([N+](=O)[O-])s1)c1ccc2c(c1)OCO2	6.52		
Cc1nc(SCc2cccc(Oc3ccccc3)c2)n[nH]1	-3.32		4.61 µM [falling, single point]
O=C(NC1CCCc2c1cnn2-c1cc(F)cc(F)c1)c1ccncc1 (configuration not stated)	-31.4		23.1 µM [falling, single point]
CCn1cnc2c(NCCc3cccnc3)nc(C#N)nc21	-16.3		0.58 µM [rising, partial curve]
COc1ccc(C(CC(=O)O)N2Cc3ccccc3C2=O)cc1 (configuration not stated)	10.6		6.51 µM [falling, single point]
CCOc1ccccc1NC(=S)N1CCCCCC1	19.3		29.1 µM [rising, single point]
O=C(CSc1ccccn1)Nc1ccc2c(c1)CCC2	39.5	29.1 µM [rising, single point]	

SMILES	cell number change [%]	AC50 [1]	AC50 [2]
O=C(c1cccc(S(=O)(=O)Nc2ccccc2Cl)c1)N1CCN(c2ccccc2O)CC1	-16.1		0.058 µM [falling, full curve, poor fit]
CN(C1CCCCC1)S(=O)(=O)c1cn(C)c(=O)n(C)c1=O	0.389		0.092 µM [falling, full curve, poor fit]
CCOCCn1c(N2CCN(c3ccccc3)CC2)nc2c1c(=O)n(C)c(=O)n2C	223	1.03 µM [rising, partial curve]	0.146 µM [rising, full curve, poor fit]
COC(=O)c1cccc(NC(=O)COc2cccc([N+](=O)[O-])c2)c1	21.9	0.231 µM [rising, full curve, poor fit]	0.116 µM [rising, full curve, poor fit]
O=S(=O)(Cc1ccccc1)N1CCN(Cc2ccc(Br)cc2)CC1	21.1		
NC(=O)c1nsc(C(=O)N(Cc2cccnc2)C(C(=O)NC2CCCCC2)c2ccc(F)cc2)c1N (configuration not stated)	5.65		29.1 µM [rising, single point]
Cc1nnc(NC(=O)CSc2nc(C(C)C)nc3ccccc23)s1			0.00411 µM [rising, full curve, poor fit]
O=C(c1ccc(-n2cncn2)c([N+](=O)[O-])c1)N1CCN(S(=O)(=O)c2ccc(F)c(F)c2)CC1		6.51 µM [rising, single point]	
CCOCCOCCC(C(=O)O)P(=O)(c1ccccc1)c1ccccc1 (configuration not stated)	12.7		6.51 µM [falling, single point]
O=C(COC(=O)/C=C/c1ccccc1)Nc1nnc(-c2ccccc2)o1	-5.12		6.51 µM [rising, partial curve, poor fit]
COc1cc(-c2nnc(NC(=O)CS(=O)(=O)c3ccc(C)cc3)o2)cc(OC)c1OC	-21.3		11.6 µM [falling, partial curve]
Cc1cccc2c(C(=O)N3CCN(C(=O)c4ccco4)CC3)cc(-c3cccc(Br)c3)nc12	-14.8		29.1 µM [falling, single point]
Cc1cc(NC(=O)CSc2nc3c(C)ccc(C)c3cc2C#N)no1	8.97		
CCOC(=O)C(C)Oc1cccc2c(=O)n(CC(=O)NCCc3ccccc3)ccc12 (configuration not stated)	31.7	0.146 µM [rising, full curve, poor fit]	2.31 µM [rising, partial curve, poor fit]
COc1ccc(NC(=O)COC(=O)c2cc(=O)c3ccccc3o2)cc1OC	-2.33		
NC(=S)Nc1ccc2cn[nH]c2c1	-27.5	0.82 µM [rising, single point]	0.00517 µM [falling, full curve, poor fit]
Cc1ccc2cc(CN(CCCN3CCOCC3)C(=O)NC3CCCCC3)c(=O)[nH]c2c1C	8.97	0.326 µM [rising, partial curve, poor fit]	23.1 µM [rising, single point]
N#Cc1cc2c(nc1SCc1cccnc1)CCCCC2	81.1	29.1 µM [rising, single point]	0.731 µM [rising, full curve]
OC(CNCC(c1ccc(Cl)cc1Cl)c1c[nH]c2ccccc12)c1ccccc1 (configuration not stated)	-56.9	20.6 µM [falling, single point]	32.6 µM [falling, partial curve, poor fit]

SMILES	cell number change [%]	AC50 [1]	AC50 [2]
CCc1cc(C(=O)O)c(NC(=O)C(c2ccccc2)c2ccccc2)s1	-4.86		29.1 µM [falling, single point]
O=C(Nc1ccccc1C(F)(F)F)N1CCCC1c1cccnc1 (configuration not stated)	-7.94		2.59 µM [falling, single point]
NS(=O)(=O)c1cccc(NC(=O)CSc2ccccn2)c1	53.1		1.64 µM [falling, partial curve]
Cc1ccc(S(=O)(=O)NCC(=O)Nc2cccc([N+](=O)[O-])c2)cc1	30.6	3.66 µM [rising, full curve, poor fit]	29.1 µM [rising, single point]
CC(Sc1nnc(Nc2ccccc2F)s1)C(=O)NC1CC1 (configuration not stated)	-2.72		3.26 µM [falling, full curve]
Cc1ccsc1C(=O)Nc1cccc(S(=O)(=O)N(C)C)c1	40.6	9.2 µM [rising, partial curve, poor fit]	
O=C(C1=C[C@H](c2ccc(Br)cc2)C[C@H](OCCCCO)O1)N1CCN(Cc2ccc3c(c2)OCO3)CC1	-26.1		
CCOc1ccc(S(=O)(=O)Nc2ccc(C(=O)NCC(c3ccco3)N(C)C)cc2)cc1 (configuration not stated)	-16.3		2.31 µM [falling, partial curve]
Cc1ccc(NC(=O)CSc2n[nH]c(-c3ccncc3)n2)c(C)c1	17.4		6.51 µM [falling, single point]
CCCCn1c(N)c(N(CCOC)C(=O)COC(=O)Cc2cccc(OC)c2)c(=O)[nH]c1=O	-18.1		
COc1ccc(OCC(=O)NNc2c3ccccc3nc3ccccc23)cc1	-98	10.3 µM [falling, partial curve]	1.64 µM [falling, full curve]
O=C(Cc1cn2ccsc2n1)Nc1nc2c(s1)CN(Cc1ccccc1)CC2	9.39	0.731 µM [rising, partial curve, poor fit]	6.51 µM [falling, single point]
O=C(Nc1ccccc1N1CCOCC1)c1ccc(Cl)c(S(=O)(=O)NCc2ccco2)c1	-0.12		29.1 µM [falling, single point]
O=C(CC1(O)C(=O)N(C/C=C/c2ccccc2)c2ccccc21)c1ccccn1 (configuration not stated)	-9.05		
O=C(CCCOc1ccc(Br)cc1)Nc1ccc(S(=O)(=O)N2CCOCC2)cc1	-18.2		6.51 µM [rising, single point]
Cc1cc(C)nc(Nc2ccc(O)cc2)n1	20.5		11.6 µM [rising, partial curve, poor fit]
Cc1cccc(NS(=O)(=O)c2ccc(C3CCCCC3)cc2)c1	-66.5	18.4 µM [falling, single point]	29.1 µM [falling, single point]
CC(C)(C)c1cc(NS(=O)(=O)c2ccc3c(c2)OCCO3)on1	-30.5	14.6 µM [falling, partial curve, poor fit]	
O=C(OCC(=O)N1CCN(S(=O)(=O)c2ccc(Cl)cc2)CC1)C1CC1	-11.7		2.59 µM [falling, partial curve]

Laid out differently: 3 of the compounds above
SMILES | cell number change [%] | AC50 [1] | AC50 [2]
CC(Sc1nnc(Nc2ccccc2F)s1)C(=O)NC1CC1 (configuration not stated) | -2.72 |  | 3.26 µM [falling, full curve]
Cc1ccsc1C(=O)Nc1cccc(S(=O)(=O)N(C)C)c1 | 40.6 | 9.2 µM [rising, partial curve, poor fit] | 
O=C(C1=C[C@H](c2ccc(Br)cc2)C[C@H](OCCCCO)O1)N1CCN(Cc2ccc3c(c2)OCO3)CC1 | -26.1 |  | 
